These results are taken from PubChem BioAssay AID445 (National Center for Advancing Translational Sciences (NCATS), 2006).

The nature of this assay: IkB Signaling. Particulars: ABC-DLBCL IkBa-CBG/CBR dual luciferase ratio (green luciferase fused to IkBa over red control in OCI-Ly3 lymphoma cells), 4 h. The gist of the method:
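In this assay, an IκBα–CBG68 fusion accumulates when IKK-driven degradation is blocked; native CBR normalizes for cell number. OCI-Ly3 cells were treated 4 h with compound and doxycycline, then green and red light read after Chroma-Glo addition.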

[1] abbreviates: measured here: control luc red channel unless noted.

SMILES strings stand for the structures. The list shows a part of the results. Further columns of the screen follow, without active or inactive calls. The list favours compounds with an active or inconclusive main result. Words in brackets tell the shape of the fitted curve; partial curves, single points and poor fits give uncertain potencies.

Take `CCc1cccc(C)c1Nc1c(-c2cccc(O)c2)nc2sccn12`: under setting [1], the AC50 was 12.6 µM [falling, partial curve].

Turning to `COc1cc(-c2nnc(SCC(=O)Nc3cccc(C#N)c3)o2)cc(OC)c1OC`, the AC50 under setting [1] was 7.94 µM [falling, full curve].

With `CCOC(=O)C1CCCN(S(=O)(=O)c2ccc3c(c2)N(C)C(=O)CC(=O)N3C)C1` (stereo unspecified), the half-maximal activity concentration (AC50) under setting [1] is 15.8 µM [falling, partial curve].

For the compound `Cc1cccc(NC(=O)CSc2nnc(-c3cc(C)n(-c4ccccc4)c3C)o2)c1C`, the AC50 under setting [1] is 15.8 µM [falling, partial curve].

Consider `CC(C)(C)Nc1c(N)c(=O)oc2ccccc12`, for which the AC50 under setting [1] is 20 µM [falling, partial curve].

As to `CCOc1ccc(-n2c(=O)c3sc4ccccc4c3n(Cc3ccc(F)cc3)c2=O)cc1`, under setting [1], the AC50 was 0.158 µM [rising, full curve].

Regarding `CC(C)c1cnc2c(c1SCC(=O)Nc1cccc([N+](=O)[O-])c1)c(=O)n(C)c(=O)n2C`, the AC50 under setting [1] is 20 µM [falling, partial curve].

Consider `CCCCC(CC)Cn1c(Oc2ccccc2)nc2c1c(=O)n(C)c(=O)n2C` (stereo unspecified), for which the AC50 under setting [1] is 12.6 µM [falling, partial curve].

With `Cc1cc(C)c(NC(=O)C(=O)NCC(c2cccnc2)N2CCN(c3ccccc3F)CC2)c(C)c1` (stereo unspecified), the AC50 under setting [1] was 25.1 µM [falling, single point].

Take `CCc1cccc(NC(=O)c2cc3c(s2)-c2ccccc2OC3)c1`: the AC50 under setting [1] was 0.0794 µM [falling, full curve].

In the case of `CC(=O)Nc1cccc(NC(=O)CSc2nccn2C2CCCC2)c1`, the half-maximal activity concentration (AC50) under setting [1] is 39.8 µM [falling, single point].

Regarding `Cc1ccc(CNC(=O)c2cc3c(-c4ccc(Cl)cc4)nn(C)c3s2)o1`, under setting [1], the AC50 is 3.16 µM [falling, partial curve].

In the case of `CN(Cc1ccccc1)c1ccc(-c2nc(-c3ccccc3)no2)cc1[N+](=O)[O-]`, the AC50 under setting [1] is 20 µM [falling, partial curve].

Regarding `COC(=O)c1ccc2c(=O)n3nc(Nc4cc(OC)ccc4OC)sc3nc2c1`, the half-maximal activity concentration (AC50) under setting [1] was 0.316 µM [falling, full curve, poor fit].

On to `CCOc1cc(S(=O)(=O)N2CCN(Cc3ccccc3)CC2)ccc1Br`, for which the AC50 under setting [1] is 10 µM [falling, partial curve].

Take `CCC(Sc1ncc(S(=O)(=O)c2ccc(Cl)cc2)c(=O)[nH]1)C(=O)Nc1ccc(OC)cc1` (stereo unspecified): the AC50 under setting [1] was 0.01 µM [falling, full curve, poor fit].

Turning to `Cc1ccc2[nH]c(=O)c3cc(C(=O)N(CCCOC(C)C)Cc4ccco4)sc3c2c1`, under setting [1], the AC50 is 0.1 µM [falling, full curve].

Regarding `COc1ccc(Cl)cc1NC(=O)CSc1nnc2[nH]c(=O)cc(-c3ccccc3)n12`, under setting [1], the AC50 is 0.631 µM [falling, full curve].

For the compound `CCC(c1nnnn1C1CCCC1)N(Cc1cccs1)Cc1cc2cc(C)ccc2[nH]c1=O` (stereo unspecified), under setting [1], the AC50 was 20 µM [falling, partial curve].

Turning to `COc1ccccc1N1CCN(C(=O)c2ccc3c(=O)n(Cc4ccco4)c(=S)[nH]c3c2)CC1`, the AC50 under setting [1] was 12.6 µM [falling, partial curve].

On to `CN(CC(=O)Nc1ccc(Br)cc1)S(=O)(=O)c1cccc2nsnc12`, for which the AC50 under setting [1] is 25.1 µM [falling, single point].

On to `COc1ccc(NC(=O)C2CCN(C(=O)c3sc4nc[nH]c(=O)c4c3C)CC2)cc1Cl`, for which, under setting [1], the AC50 is 20 µM [rising, partial curve, poor fit].

Consider `COc1ccccc1N1CCN(C(=O)c2cccc(N3C(=O)NC4CC3(C)Oc3ccccc34)c2)CC1` (stereo unspecified), for which the AC50 under setting [1] is 15.8 µM [falling, partial curve].

As to `COc1ccc(NC(=O)c2oc3ccccc3c2NC(=O)c2cc(C)cc(C)c2)c(OC)c1`, under setting [1], the AC50 is 1.26 µM [rising, full curve, poor fit].

For the compound `COC(=O)c1c(-c2cccs2)csc1NC(=O)c1cccnc1`, the half-maximal activity concentration (AC50) under setting [1] is 39.8 µM [falling, single point].

Turning to `CCOC(=O)C1CCN(c2nc3ccccc3nc2Cl)CC1`, under setting [1], the AC50 is 39.8 µM [falling, single point].

With `CCN(C(=O)CSc1nc2ccccc2n1Cc1ccccc1C#N)c1ccccc1`, the AC50 under setting [1] was 25.1 µM [falling, partial curve].

Consider `COc1ccc(-n2nc(C(=O)Nc3ccc(C)cn3)c3c4ccccc4n(C)c3c2=O)cc1Cl`, for which, under setting [1], the AC50 is 15.8 µM [rising, partial curve, poor fit].

`Cc1ccc2c(C)c(C(=O)NCC(c3ccc(Cl)cc3)N3CCOCC3)oc2c1` (stereo unspecified): the concentration at half-maximal activity (AC50) under setting [1] is 15.8 µM [falling, partial curve].

As to `COc1cc(NC(=O)C2CCN(c3nnc(C)c4c(C)n(-c5ccccc5)nc34)CC2)cc(OC)c1`, the AC50 under setting [1] was 25.1 µM [falling, partial curve].

In the case of `CCOc1ccc(S(=O)(=O)Nc2cccc(Cl)c2)cc1`, the AC50 under setting [1] is 12.6 µM [falling, partial curve].

As for `Cc1ccc2c(c1)c(=O)c1ccccc1n2CCCC(=O)Nc1ccc(Cl)cc1C`, the AC50 under setting [1] was 7.94 µM [falling, partial curve].

As for `Oc1ccc2ccccc2c1C=NCc1cn2ccsc2n1`, the AC50 under setting [1] is 31.6 µM [rising, partial curve] [measured here: IkB-luc green channel].

As to `C[C@@H]1O[C@H](O[C@@H]2[C@H](C)O[C@H](O[C@@H]3[C@H](C)O[C@H](O[C@H]4CC[C@]5(C)[C@@H](CC[C@@H]6[C@H]5C[C@@H](O)[C@]5(C)[C@@H](C7=CC(=O)OC7)CC[C@]65O)C4)C[C@@H]3O)C[C@@H]2O)C[C@H](O)[C@@H]1O`, the concentration at half-maximal activity (AC50) under setting [1] is 0.794 µM [falling, full curve].

As to `Cc1oc(-c2ccccc2F)nc1CSCC(=O)NCc1ccc2c(c1)OCO2`, the AC50 under setting [1] is 15.8 µM [falling, partial curve].

With `CCOC(=O)c1cc2c(N)c(C(=O)c3cc(C#N)c(SC)nc3C)sc2nc1C`, the AC50 under setting [1] was 15.8 µM [falling, partial curve].

Regarding `COc1ccc(OCC(=O)Nc2ccc(Cl)c(-c3nc4ncccc4o3)c2)cc1`, under setting [1], the AC50 is 25.1 µM [falling, partial curve].

Consider `O=C(NCc1nc2ccccc2n1Cc1ccccc1Cl)c1ccccc1`, for which the AC50 under setting [1] is 31.6 µM [falling, partial curve].

`COCCn1c(SCC(=O)c2c(C)[nH]c3ccccc23)nc2cc(C(=O)NC(C)C)ccc2c1=O`: the AC50 under setting [1] is 12.6 µM [falling, partial curve].

For `CCOc1ccc(CCNC(=O)Cn2ccc3cc(S(=O)(=O)N4CCCCC4)ccc32)cc1`, under setting [1], the AC50 is 12.6 µM [falling, partial curve].

On to `COc1ccccc1N1CCN(Cc2cc(Br)c(O)c3ncccc23)CC1`, for which, under setting [1], the AC50 is 3.16 µM [rising, partial curve] [measured here: IkB-luc green channel].

For `COc1cccc(CNC(=O)c2ccc3c(c2)N(Cc2ccc(F)cc2Cl)C(=O)c2ccccc2S3)c1`, the AC50 under setting [1] is 6.31 µM [falling, partial curve].

Take `Cc1ccc(Cl)cc1NC(=O)Nc1cn(CC(C)C)c(=O)c2ccccc12`: the concentration at half-maximal activity (AC50) under setting [1] was 39.8 µM [falling, single point].

As for `Cc1ccccc1CN1C(=O)c2ccccc2Sc2ccc(C(=O)NCc3ccccc3)cc21`, the AC50 under setting [1] was 12.6 µM [falling, partial curve].

Turning to `CC1CCN(S(=O)(=O)c2ccc3c(c2)N(CC(=O)NCc2ccccc2)C(=O)CO3)CC1`, the AC50 under setting [1] is 31.6 µM [falling, single point].

As to `CCOC(=O)N1CCN(C(=O)CSCC(=O)Nc2nc(-c3cccs3)cs2)CC1`, the AC50 under setting [1] is 12.6 µM [falling, partial curve].

As to `O=C(CSc1nc(Nc2ccccc2)nc(N2CCOCC2)n1)Nc1ccc2c(c1)OCCO2`, the AC50 under setting [1] was 10 µM [falling, partial curve].

Take `COc1ccc(OC)c(NC2=C(c3ccccc3)C(=O)c3ccccc32)c1`: the AC50 (measured here: IkB-luc green channel) is 6.31 µM [rising, single point] and the concentration at half-maximal activity (AC50) (measured here: control luc red channel) is 5.01 µM [falling, partial curve].

In the case of `Oc1ccccc1Nc1nc(-c2ccccc2)c2cc(Cl)ccc2n1`, the AC50 under setting [1] was 6.31 µM [falling, full curve].

For the compound `Cn1cc(CC(=O)Nc2cccc(C#N)c2)c2ccccc21`, the AC50 under setting [1] is 10 µM [falling, partial curve].

Take `CCN(CC)c1nc(-c2ccc(C(C)(C)C)cc2)nc2ccccc12`: the AC50 under setting [1] was 15.8 µM [falling, single point].

As to `O=C1CS(=O)(=O)C2(C(=O)N(Cc3cccc(F)c3)c3ccccc32)N1c1ccccc1` (stereo unspecified), the AC50 under setting [1] is 10 µM [falling, partial curve].

With `CCc1ccccc1N(C)C(=O)c1cn(CC(C)C)c(=O)c2cc(OC)c(OC)cc12`, the AC50 under setting [1] was 3.98 µM [falling, full curve].

Take `COc1ccc(-c2nn(CC(=O)NC3CCCC3)c3c2cnc2ccc(F)cc23)cc1`: under setting [1], the concentration at half-maximal activity (AC50) is 0.631 µM [rising, full curve].

For the compound `Clc1ccc(Cn2cc(/C=N/n3cnnc3)c3ccccc32)cc1`, under setting [1], the AC50 was 25.1 µM [falling, partial curve].

On to `Cc1c(NC(=O)c2cc([N+](=O)[O-])ccc2N2CCOCC2)cccc1-c1nc2ccccc2o1`, for which the AC50 under setting [1] is 7.94 µM [falling, partial curve].

For the compound `Cc1ccc(NC(=O)c2nc(S(C)(=O)=O)ncc2N(Cc2ccccc2)Cc2ccco2)c(C)c1`, the concentration at half-maximal activity (AC50) under setting [1] is 39.8 µM [falling, single point].

With `Cc1nn(-c2ccc(F)cc2)c(-n2cccc2)c1C(=O)N1CCN(c2ccc(F)cc2)CC1`, the AC50 under setting [1] is 25.1 µM [falling, single point].

Take `Cc1ccc(CNC(=O)Cn2c3ncccc3c(=O)n2-c2ccccc2)cc1`: the AC50 under setting [1] was 20 µM [falling, partial curve].

Consider `O=C(CSc1ccc(-c2ccccn2)nn1)Nc1ccc(F)c(F)c1`, for which the AC50 under setting [1] was 15.8 µM [falling, single point].
